# According to the supplement of paper PMC4604168 (melanoma cell lines):
# Some of the results follow. Many values rest on one well or one pass, so single values are uncertain.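 Cells were imaged in 1,536-well plates, and nuclei stained with an antibody against cleaved PARP were counted against all DNA-stained nuclei to give the apoptosis fraction. Screening doses were chosen to leave most cells alive, and resting and induced cleaved-PARP levels differ strongly between cell lines.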
# Assays:
# Test in all cases: cleaved PARP positive nuclei fraction relative to DMSO control; melanoma cells; higher = more apoptosis
# Conditions in all cases: library dose: low library concentration; 72 h
# WM115 = system: WM115
# WM1716 = system: WM1716
# WM1745 = system: WM1745
# WM3526 = system: WM3526
# WM3619 = system: WM3619
# WM451Lu = system: WM451Lu
Structure (SMILES),cleaved PARP positive nuclei fraction (WM115),cleaved PARP positive nuclei fraction (WM1716),cleaved PARP positive nuclei fraction (WM1745),cleaved PARP positive nuclei fraction (WM3526),cleaved PARP positive nuclei fraction (WM3619),cleaved PARP positive nuclei fraction (WM451Lu)
"Cn1cc(C2=C(c3cn(C4CCN(Cc5ccccn5)CC4)c4ccccc34)C(=O)NC2=O)c2ccccc21 [Enzastaurin] + N#Cc1c(O)c2c(-c3ccc(-c4ccccc4O)cc3)csc2[nH]c1=O [A769662] (first compound 0.8 µM, partner dose 2 µM)",34.1%,483%,104%,302%,69.4%,19.8%
"C[C@]12O[C@H](C[C@]1(O)CO)n1c3ccccc3c3c4c(c5c6ccccc6n2c5c31)CNC4=O [Lestaurtinib] + CC(C)(C)c1cnc(CSc2cnc(NC(=O)C3CCNCC3)s2)o1 [SNS-032] (first compound 0.004 µM, partner dose 0.01 µM)",114%,97.3%,93.4%,55.8%,88.8%,161%
"Cc1cc(SCc2sc(-c3ccc(C(F)(F)F)c(F)c3)nc2C)ccc1OCC(=O)O + Oc1nc(-c2ccc(C(F)(F)F)cc2)nc2c1CSCC2 [XAV939] (first compound 2 µM, partner dose 2 µM)",144%,442%,111%,66.7%,92.7%,41.6%
"N.N.[Cl][Pt][Cl] [cisplatin] + COc1ccc(Cl)c(Nc2nc3ccccc3nc2NS(=O)(=O)c2cccc(NC(=O)C(C)(C)N)c2)c1 [XL147] (first compound 1.6 µM, partner dose 0.8 µM)",197%,138%,88.3%,34.9%,75.9%,41.4%
"NC(=O)c1ccc(N(C(N)=O)c2c(F)cccc2F)nc1-c1ccc(F)cc1F + O=C(Oc1ccc([N+](=O)[O-])cc1)N1CCC(C(O)(c2ccc3c(c2)OCO3)c2ccc3c(c2)OCO3)CC1 [JZL184] (first compound 0.4 µM, partner dose 1 µM)",71.8%,49.5%,97.1%,89.4%,87.9%,36%
"C[C@]12O[C@H](C[C@]1(O)CO)n1c3ccccc3c3c4c(c5c6ccccc6n2c5c31)CNC4=O [Lestaurtinib] + CCc1ccc(CCOc2ccc(CC3SC(=O)NC3=O)cc2)nc1 [pioglitazone] (first compound 0.004 µM, partner dose 2 µM)",125%,320%,94.8%,119%,97%,86.3%
"N.N.[Cl][Pt][Cl] [cisplatin] + OCc1c[nH]c2ccccc12 [Indole-3-carbinol] (first compound 1.6 µM, partner dose 0.8 µM)",101%,94.2%,89.1%,85.8%,96.5%,142%
"N.N.[Cl][Pt][Cl] [cisplatin] + COc1ccc(COc2ccc(Cc3cnc(N)nc3N)cc2OC)cc1 [GW2580] (first compound 1.6 µM, partner dose 1 µM)",124%,99.1%,75.6%,142%,71.3%,116%
"Cn1cc(C2=C(c3cn(C4CCN(Cc5ccccn5)CC4)c4ccccc34)C(=O)NC2=O)c2ccccc21 [Enzastaurin] + COC(=O)c1sccc1S(=O)(=O)Nc1ccc(Nc2ccccc2)cc1OC [GSK0660] (first compound 0.8 µM, partner dose 1 µM)",173%,136%,98.1%,80.2%,59%,82.7%
"COc1ccc2c(c1)CCC1C2CCC2(C)C(NCCCCCCN3C(=O)C=CC3=O)CCC12 (stereo unspecified) + Cc1cc(SCc2sc(-c3ccc(C(F)(F)F)c(F)c3)nc2C)ccc1OCC(=O)O [GW0742] (first compound 0.4 µM, partner dose 2 µM)",56.7%,102%,97%,248%,84%,50.9%
"COc1ccc2c(c1)CCC1C2CCC2(C)C(NCCCCCCN3C(=O)C=CC3=O)CCC12 (stereo unspecified) + O=C(Oc1ccc([N+](=O)[O-])cc1)N1CCC(C(O)(c2ccc3c(c2)OCO3)c2ccc3c(c2)OCO3)CC1 [JZL184] (first compound 0.4 µM, partner dose 1 µM)",50%,107%,115%,83%,95.1%,116%
"N.N.[Cl][Pt][Cl] [cisplatin] + Cc1nc(Nc2ncc(C(=O)Nc3c(C)cccc3Cl)s2)cc(N2CCN(CCO)CC2)n1 [dasatanib] (first compound 1.6 µM, partner dose 0.004 µM)",72.9%,95.8%,114%,35.3%,113%,47.1%
"Oc1nc(-c2ccc(C(F)(F)F)cc2)nc2c1CSCC2 + O=C(Oc1ccc([N+](=O)[O-])cc1)N1CCC(C(O)(c2ccc3c(c2)OCO3)c2ccc3c(c2)OCO3)CC1 [JZL184] (first compound 2 µM, partner dose 1 µM)",128%,137%,140%,225%,90.5%,27.3%
"C[C@]12O[C@H](C[C@]1(O)CO)n1c3ccccc3c3c4c(c5c6ccccc6n2c5c31)CNC4=O [Lestaurtinib] + C=CCn1c(=O)c2cnc(Nc3ccc(N4CCN(C)CC4)cc3)nc2n1-c1cccc(C(C)(C)O)n1 [MK1775] (first compound 0.004 µM, partner dose 0.02 µM)",242%,91.4%,109%,63.4%,173%,57.2%
"Cn1cc(C2=C(c3cn(C4CCN(Cc5ccccn5)CC4)c4ccccc34)C(=O)NC2=O)c2ccccc21 [Enzastaurin] + Cn1cncc1[C@@](N)(c1ccc(Cl)cc1)c1ccc2c(c1)c(-c1cccc(Cl)c1)cc(=O)n2C [tipifarnib] (first compound 0.8 µM, partner dose 0.01 µM)",102%,88.6%,169%,63.3%,75.3%,235%
"C[C@]1(O)C[C@@H](c2nc(-c3ccc4ccc(-c5ccccc5)nc4c3)c3c(N)nccn32)C1 + N.N.[Cl][Pt][Cl] [cisplatin] (first compound 0.4 µM, partner dose 1.6 µM)",114%,85.5%,115%,21.6%,83.1%,99%
"CC1(C)CCC(c2ccc(Cl)cc2)=C(CN2CCN(c3ccc(C(=O)NS(=O)(=O)c4ccc(N[C@H](CCN5CCOCC5)CSc5ccccc5)c(S(=O)(=O)C(F)(F)F)c4)cc3)CC2)C1 + Cc1cc(SCc2sc(-c3ccc(C(F)(F)F)c(F)c3)nc2C)ccc1OCC(=O)O [GW0742] (first compound 0.4 µM, partner dose 2 µM)",193%,146%,1410%,75.5%,195%,110%
"CN(NC(=O)CC(=O)NN(C)C(=S)c1ccccc1)C(=S)c1ccccc1 + Cc1cc(SCc2sc(-c3ccc(C(F)(F)F)c(F)c3)nc2C)ccc1OCC(=O)O [GW0742] (first compound 0.006 µM, partner dose 2 µM)",18.8%,4.84%,113%,34.3%,77.1%,83.9%
"C[C@]12O[C@H](C[C@]1(O)CO)n1c3ccccc3c3c4c(c5c6ccccc6n2c5c31)CNC4=O [Lestaurtinib] + CC1(C)NC(=O)N(c2ccc([N+](=O)[O-])c(C(F)(F)F)c2)C1=O [nilutamide] (first compound 0.004 µM, partner dose 1 µM)",123%,55.7%,89.3%,68.7%,83.2%,55.9%
"C[C@]12O[C@H](C[C@]1(O)CO)n1c3ccccc3c3c4c(c5c6ccccc6n2c5c31)CNC4=O [Lestaurtinib] + Cn1cc(/C=C2\C(=O)Nc3cccnc32)c2ccccc21 [GW441756] (first compound 0.004 µM, partner dose 0.4 µM)",90.8%,80.8%,227%,310%,159%,137%
"COc1cc2c(Oc3ccc4[nH]c(C)cc4c3F)ncnc2cc1OCCCN1CCCC1 [cediranib] + C/C(O)=C(\C#N)C(=O)Nc1cc(Br)ccc1Br [LFM-A13] (first compound 0.4 µM, partner dose 2 µM)",213%,45%,99.3%,44.2%,73.8%,84%
"C[As](C)SC[C@H](NC(=O)CC[C@H](N)C(=O)O)C(=O)NCC(=O)O [Darinaparsin] + Oc1nc(-c2ccc(C(F)(F)F)cc2)nc2c1CSCC2 [XAV939] (first compound 0.4 µM, partner dose 2 µM)",164%,59.6%,136%,56.1%,72.5%,58.8%
"O=C(/C=C/c1cccnc1)NCCCCC1CCN(C(=O)c2ccccc2)CC1 + C/C(O)=C(\C#N)C(=O)Nc1cc(Br)ccc1Br [LFM-A13] (first compound 0.01 µM, partner dose 2 µM)",104%,28.9%,79.1%,66.2%,141%,132%
"Cc1ccc(NC(=O)c2cccc(N(C)C)c2)cc1NC(=O)c1ccc(O)cc1 + C/C(O)=C(\C#N)C(=O)Nc1cc(Br)ccc1Br [LFM-A13] (first compound 2 µM, partner dose 2 µM)",73%,98.5%,119%,73.3%,88.7%,108%
"O=C(CCCCCCC(=O)Nc1ccccc1)NO [vorinostat] + O=C(Oc1ccc([N+](=O)[O-])cc1)N1CCC(C(O)(c2ccc3c(c2)OCO3)c2ccc3c(c2)OCO3)CC1 [JZL184] (first compound 0.08 µM, partner dose 1 µM)",150%,91%,103%,83.8%,77.3%,257%
"CC1(C)CCC(c2ccc(Cl)cc2)=C(CN2CCN(c3ccc(C(=O)NS(=O)(=O)c4ccc(N[C@H](CCN5CCOCC5)CSc5ccccc5)c(S(=O)(=O)C(F)(F)F)c4)cc3)CC2)C1 + O=C(Oc1ccc([N+](=O)[O-])cc1)N1CCC(C(O)(c2ccc3c(c2)OCO3)c2ccc3c(c2)OCO3)CC1 [JZL184] (first compound 0.4 µM, partner dose 1 µM)",463%,197%,809%,82.6%,112%,186%

# Record cards, as listed above.
# C[C@]12O[C@H](C[C@]1(O)CO)n1c3ccccc3c3c4c(c5c6ccccc6n2c5c31)CNC4=O [Lestaurtinib] + CC(C)(C)c1cnc(CSc2cnc(NC(=O)C3CCNCC3)s2)o1 [SNS-032] (first compound 0.004 µM, partner dose 0.01 µM) reads cleaved PARP positive nuclei fraction (WM115): 114%; cleaved PARP positive nuclei fraction (WM1716): 97.3%; cleaved PARP positive nuclei fraction (WM1745): 93.4%; cleaved PARP positive nuclei fraction (WM3526): 55.8%; cleaved PARP positive nuclei fraction (WM3619): 88.8%; cleaved PARP positive nuclei fraction (WM451Lu): 161%
# Cn1cc(C2=C(c3cn(C4CCN(Cc5ccccn5)CC4)c4ccccc34)C(=O)NC2=O)c2ccccc21 [Enzastaurin] + Cn1cncc1[C@@](N)(c1ccc(Cl)cc1)c1ccc2c(c1)c(-c1cccc(Cl)c1)cc(=O)n2C [tipifarnib] (first compound 0.8 µM, partner dose 0.01 µM) reads cleaved PARP positive nuclei fraction (WM115): 102%; cleaved PARP positive nuclei fraction (WM1716): 88.6%; cleaved PARP positive nuclei fraction (WM1745): 169%; cleaved PARP positive nuclei fraction (WM3526): 63.3%; cleaved PARP positive nuclei fraction (WM3619): 75.3%; cleaved PARP positive nuclei fraction (WM451Lu): 235%
